# Measurements taken from PubChem BioAssay AID540275 (National Center for Advancing Translational Sciences (NCATS), 2011).
# Sequences of proteins named here, by UniProt entry; tags and fusion partners are left off.
# UniProt Q8NER1, whole entry, looked up: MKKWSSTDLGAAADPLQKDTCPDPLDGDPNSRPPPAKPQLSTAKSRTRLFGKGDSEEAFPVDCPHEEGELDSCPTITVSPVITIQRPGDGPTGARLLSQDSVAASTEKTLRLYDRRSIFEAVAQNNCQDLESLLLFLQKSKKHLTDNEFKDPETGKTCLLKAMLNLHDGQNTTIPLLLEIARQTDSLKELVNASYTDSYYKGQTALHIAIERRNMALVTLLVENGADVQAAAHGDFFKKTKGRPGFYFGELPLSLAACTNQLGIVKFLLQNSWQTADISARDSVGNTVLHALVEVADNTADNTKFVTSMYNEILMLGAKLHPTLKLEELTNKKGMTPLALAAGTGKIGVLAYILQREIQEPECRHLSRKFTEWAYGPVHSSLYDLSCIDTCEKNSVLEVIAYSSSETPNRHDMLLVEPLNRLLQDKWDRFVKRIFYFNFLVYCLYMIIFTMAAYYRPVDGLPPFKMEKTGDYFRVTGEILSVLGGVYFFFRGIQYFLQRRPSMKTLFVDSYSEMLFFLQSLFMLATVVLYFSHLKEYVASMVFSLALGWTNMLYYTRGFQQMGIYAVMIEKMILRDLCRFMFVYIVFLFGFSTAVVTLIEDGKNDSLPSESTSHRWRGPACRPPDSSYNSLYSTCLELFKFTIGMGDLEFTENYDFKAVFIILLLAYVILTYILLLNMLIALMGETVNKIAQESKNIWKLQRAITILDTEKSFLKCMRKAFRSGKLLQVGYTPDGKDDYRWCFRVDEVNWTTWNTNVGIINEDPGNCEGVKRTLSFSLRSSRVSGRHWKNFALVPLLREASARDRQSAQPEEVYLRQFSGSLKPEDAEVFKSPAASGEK
# The whole screen tested about 320,000 compounds, of which about 620 (0.19%) were called active. This list was built around the results that the source calls inconclusive (neither active nor inactive); the mix of calls is not that of the screen. Cut-off read from the data, not from the text of the source: active = activation above about 80%; inconclusive = between about 30% and that limit; inactive = weaker than that.
# Biological target: Transient receptor potential cation channel subfamily V member 1 (Homo sapiens) (UniProt Q8NER1)
# Assay: HTS Assay for Compounds that Act as Agonists of the Vanilloid Receptor 1; note: 0% is about no effect
# Conditions: TRPV1-expressing cells, Fluo-8 calcium influx, agonist mode; at 8.33 µM, hits give high values
# How it was run: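 TRPV1-expressing cells were cultured overnight at 35.5C and loaded with Fluo-8 calcium dye for 40 to 90 min at room temperature. After a 10 s baseline, compound was added and calcium influx was read kinetically for 3 min (ex 480/em 520 nm).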
row,SMILES,activation
1,O=C1CC(c2nc3ccccc3[nH]2)CN1c1ccccc1 (stereo unspecified),inactive: 11%
2,Cc1ccc2nc3c(c(Nc4ccccc4)c2c1)CCC3,inconclusive: 59.8%
3,COc1cc(NC(=O)c2ccc(F)cc2)c(OC)cc1Cl,inconclusive: 33.8%
4,C/C(=N\NC(=O)c1c(Cl)c(C)nn1C)c1ccc(NC(=O)COc2ccc(Cl)cc2C)cc1,inactive: -0.964%
5,CC1OC(OC2C(OC3C(O[C@H]4CC[C@]5(C)C6C=C[C@]78OC[C@@]9(CC[C@@H](C)[C@H](C)C97)[C@H](O)C[C@@]8(C)[C@]6(C)CC[C@H]5C4(C)C)OC(C)C(O)C3O)OC(CO)C(O)C2O)C(O)C(O)C1O (stereo partly specified),inconclusive: 37.3%
6,CC(C)CNC(=S)NC(=O)c1ccc(Cl)cc1Cl,inactive: 15.7%
7,CC(=O)Oc1ccc2c(c1)O/C(=C\c1ccncc1)C2=O,inactive: 9.11%
8,O=C(c1c[nH]c(C(=O)N2CCN(Cc3ccccc3)CC2)c1)C1CCCCC1,inconclusive: 73.7%
9,Cc1ccc(N/C=C/C(=O)c2cccs2)cc1C,inconclusive: 41.5%
10,COc1ccc(/C=C/C(=O)N2CCN(c3ccccn3)CC2)c2ccccc12,inconclusive: 41%
11,COc1cccc(CNC(=O)c2cccc(NC(=O)C3=C(C)OCCS3)c2)c1,inactive: 0.12%
12,CC(C)Oc1cccc(-c2nnc(SCC(=O)Nc3ccc4c(c3)OCCO4)n2N)c1,inconclusive: 36%
13,CCc1ccc(C(O)(C(C)C)C(CN2CCOCC2)c2ccccc2)cc1 (stereo unspecified),inconclusive: 30.9%
14,Cc1cc(C)cc(C(=O)Nc2ccncc2)c1,inconclusive: 49.7%
15,CCOC(=O)c1ccccc1NC(=O)c1ccccc1SC,inconclusive: 34.4%
16,CCc1ccc(/C=N/NC(=O)Cc2ccc(OC)c(OC)c2)s1,inconclusive: 35.7%
17,CN(C)c1cccc(C(=O)NC2CCCCCC2)c1,inconclusive: 30.1%
18,Fc1ccc(C2CC(c3ccco3)=NN2c2ccccc2)cc1 (stereo unspecified),inactive: -0.019%
19,Cc1cc(C)c2c(N)c(C(=O)c3ccccc3)oc2n1,inactive: -1.41%
20,CCCc1nn(C)c(C(=O)Nc2cccc(C)c2)c1Cl,inconclusive: 44%
21,CC1(C)CC(C(CC(=O)N2CCCC2)Cc2ccccc2)CCO1 (stereo unspecified),inconclusive: 38.6%
22,Cc1ccc(-n2cnc3scc(-c4cccs4)c3c2=O)cc1,inconclusive: 32.7%
23,COc1ccc(-c2cnn3c(N)c(S(=O)(=O)C(C)(C)C)cnc23)cc1,inactive: -1.12%

row,SMILES,activation
1,COc1ccccc1Oc1coc2c(CN3CCOCC3)c(O)ccc2c1=O,inactive: 2.66%
2,Cc1ccc(NC2CC(=O)N(Cc3ccccc3)C2=O)cc1 (stereo unspecified),inconclusive: 41.3%
3,O=C(COC(=O)CCSc1ccc(Cl)cc1)NCc1ccccc1,inconclusive: 47.4%
4,CC(Oc1ccc(Cl)cc1Cl)c1ccnc2nc(N3CCOCC3)nn12 (stereo unspecified),inconclusive: 36.8%
5,C/C(=N/NC(=O)c1ccncc1)c1ccc(NC(=O)c2ccccc2)cc1,inconclusive: 44.5%
6,CCOC(=O)C1=C(C)N=C(SC)N(C)C1c1ccccc1 (stereo unspecified),inconclusive: 36.9%
7,O=C1C(Cl)=C(N2CCOCC2)C(=O)N1CCc1ccccc1,inconclusive: 68.3%
8,CN(C(=S)Oc1ccc(C(=O)Nc2ccccc2)cc1)c1ccccc1,inconclusive: 79.2%
9,CC(=O)Nc1ccc(S(=O)(=O)N(C)Cc2ccccc2)cc1,inconclusive: 68.2%
10,COc1ccccc1Nc1nc2ccccc2[nH]1,inconclusive: 32.6%
11,CCc1ccc(N2CC(C(=O)Nc3ccc4c(c3)OCO4)CC2=O)cc1 (stereo unspecified),inconclusive: 80%
12,COc1cccc(C(c2c(NC(=O)c3ccccc3)sc(C)c2C)N2CCN(C)CC2)c1 (stereo unspecified),inconclusive: 40.4%
13,O=C(Nc1ccc(Cl)cc1)c1cc2c(cc1O)[nH]c1ccccc12,inactive: 4.24%
14,CC1CC(C)CN(C(=O)c2ccccc2Nc2ccc(SC(F)F)cc2)C1 (stereo unspecified),inconclusive: 48.6%
15,O=C(Oc1cccc2ccccc12)C1CC1,inconclusive: 35.5%
16,O=C(/C(=C/c1ccccc1)c1ccccc1)N1CCCCC1,inconclusive: 37.5%
17,COC(=O)c1ccc(Cn2nnc3c(=O)[nH]c(C4CCCN(S(=O)(=O)c5ccccc5Cl)C4)nc32)cc1 (stereo unspecified),inactive: -0.41%
18,CCOc1ncccc1C(=O)Nc1ccc(C)c(S(=O)(=O)N2CCCCCC2)c1,inconclusive: 42.6%
19,Cc1ccccc1OCC(O)Cn1c(Br)nc2c1c(=O)n(C)c(=O)n2C (stereo unspecified),inactive: 1.69%
20,Cc1cccc(-n2ncc3c(Nc4ccc(F)cc4)ncnc32)c1,inconclusive: 67.1%
21,CCn1ccc(C(=O)Nc2ccc3c(c2)CCC3)n1,inconclusive: 64.6%
22,COC(=O)C(CC(=O)c1ccc(Cl)cc1)c1ccc(C(C)C)cc1 (stereo unspecified),inconclusive: 32.7%
23,Cc1cc(C)c(OC2(c3ccccc3)OC(=O)c3ccccc32)c(C)c1 (stereo unspecified),inconclusive: 46.6%

row,SMILES,activation
1,COC(=O)c1cc(NC(=S)NCc2ccc(Cl)cc2)cc(C(=O)OC)c1,inconclusive: 44.6%
2,CC1(C)Cc2c(sc(NC(=O)c3ccc(Br)o3)c2C#N)CO1,inconclusive: 59.5%
3,Cc1cccc(Nc2nnc(SCC(=O)c3ccc(O)cc3O)s2)c1,inconclusive: 35.1%
4,CC(=O)Nc1ccc(NC(=S)NC(=O)c2oc3ccccc3c2C)cc1,inactive: 1.96%
5,CC(=O)N1N=C(c2ccc(Cl)cc2)OC1c1ccc(C(C)C)cc1 (stereo unspecified),inconclusive: 32.5%
6,Oc1cccc(/C=N/Nc2cc(N3CCCC3)nc(N3CCCC3)n2)c1,inconclusive: 50.9%
7,Cc1cc(SCC(=O)NC2CCCCC2)nc2ccccc12,inconclusive: 31.4%
8,CCOC(=O)N1CCN(c2ccnc3cc(Cl)ccc23)CC1,inconclusive: 43%
9,Cc1nn(C)cc1CNC(=O)Nc1ccc(Cl)c(Cl)c1,inconclusive: 44.8%
10,COC(=O)c1cc(NC(=O)Cc2ccc(OC)c(OC)c2)cc(C(=O)OC)c1,inconclusive: 56%
11,Cc1ccc(NC(=S)N2CCN(S(=O)(=O)c3ccccc3)CC2)cc1C,inconclusive: 41.9%
12,COCCCn1cnc2c(c1=O)c1nc3ccccc3nc1n2CCc1ccccc1,inconclusive: 30.6%
13,COc1ccc(C(=O)NCC(=O)c2ccccc2)cc1,inactive: 14.4%
14,COc1cc(C(=O)NCCCNc2nc3cc(C)cc(C)c3cc2C#N)cc(OC)c1OC,inactive: 12.6%
15,NS(=O)(=O)c1cccc(NC(=O)CSc2ncc(C(F)(F)F)cc2Cl)c1,inconclusive: 67.2%
16,COc1ccccc1C(=O)O/N=C(/c1ccncc1)c1ccc([N+](=O)[O-])cc1,inconclusive: 32.5%
17,O=C(c1ccc(Cl)s1)N1CCCC1,inconclusive: 37.5%
18,Cc1ccc(NC(=O)N2CCC(NC(=O)c3cccc(C)c3)CC2)cc1,inconclusive: 36.5%
19,O=C(COc1ccc2c(c1)CCC2)NCc1ccc(Cl)cc1,inconclusive: 46.8%
20,O=C(NCc1ccc2c(c1)OCO2)c1ccc2c(c1)OCO2,inconclusive: 59.1%
21,Cc1cc(C)cc(NC(=O)c2ccc(S(=O)(=O)C(F)F)cc2)c1,inconclusive: 64.9%
22,O=C(NC1CCCCC1)c1ccc(S(=O)(=O)c2ccccc2)cc1,inconclusive: 47%
23,COC(=O)C1CCN(C(=O)COc2cc3sc(C)nc3c3sccc23)CC1,inconclusive: 31%

row,SMILES,activation
1,Cc1ccc(C(=O)NCCNC(=O)c2ccco2)cn1,inactive: -0.463%
2,COc1cc2c(C(=O)O)c(C)n(-c3ccccc3)c2c2ccccc12,inconclusive: 33.2%
3,COc1ccc(-c2csc(NC(=S)NC(=O)c3ccco3)n2)cc1,inactive: 2.13%
4,Cc1cccc(N2CCN(S(=O)(=O)c3ccc4c(c3)CCC(=O)N4)CC2C)c1 (stereo unspecified),inconclusive: 47.9%
5,CCc1sc(C(=O)N2CCc3ccccc32)cc1C,inactive: 28.5%
6,O=C(Cc1ccccc1Cl)Nc1ccc(S(=O)(=O)N2CCOCC2)cc1,inconclusive: 46.9%
7,O=C(NC1CCCC1)c1ccc2c(c1)N(Cc1ccccc1)CCS2,inconclusive: 64.3%
8,COc1ccc(C(=O)NC2CC2)cc1OC1CCN(Cc2cc(C)cc(C)c2)CC1,inactive: 5.82%
9,O=C(NCc1ccccn1)c1nc(-c2ccc(C(F)(F)F)cc2)no1,inconclusive: 45.7%
10,O=S(=O)(c1cccc(F)c1)N1CCCN(c2ccc(C(F)(F)F)cn2)CC1,inconclusive: 34%
11,CC1=C(C(=O)Nc2ccccn2)C(c2ccc(Cl)cc2Cl)NC(=S)N1 (stereo unspecified),inconclusive: 50.5%
12,Cc1csc(N2CCCC2=O)n1,inactive: -10.4%
13,O=C(/C=C/c1ccc2c(c1)OCCO2)c1ccccc1,inconclusive: 30.9%
14,C=CCn1c(SCC(=O)N2CCCCCC2)nc2ccccc2c1=O,inconclusive: 32.5%
15,COc1cc(CCC(=O)OCC(=O)N2CCc3ccccc32)cc(OC)c1OC,inactive: -3.56%
16,CCOC(=O)c1ccc(NC(=O)CSc2nnnn2C2CCCCC2)cc1,inactive: 2.26%
17,CCN(CC(=O)NCc1cccs1)C(=O)CCCOc1ccc(C(C)(C)C)cc1,inconclusive: 47.6%
18,O=C(Nc1nc2c(s1)CCc1ccccc1-2)c1cccs1,inconclusive: 55.1%
19,Cc1ccc(/C=c2/sc3nnc(-c4ccccc4Cl)n3c2=O)o1,inactive: -1.46%
20,COc1ccc(C(=O)/C=C/c2cn(CC(O)CN(CC(C)C)CC(C)C)c3ccccc23)cc1OC (stereo unspecified),inactive: -4.32%
21,COc1ccc(O)c(C(=O)CC(=O)c2ccc(F)cc2)c1,inconclusive: 34.9%
22,O=C(Nc1ccc(S(=O)(=O)N2CCCCCC2)cc1)C1CCCO1 (stereo unspecified),inconclusive: 35.5%

# Taken from above.
# activation with O=C(Cc1ccccc1Cl)Nc1ccc(S(=O)(=O)N2CCOCC2)cc1 is entered as inconclusive: 46.9%
# activation with O=C(/C=C/c1ccc2c(c1)OCCO2)c1ccccc1 is entered as inconclusive: 30.9%
